± gives the uncertainty stated by the source. Many entries were measured with a wide error.
Assay: self-splicing fitness, log relative to wild type (ln ratio); higher = more splicing; Tetrahymena group I intron in knt gene, E. coli kanamycin selection, DiMSum; sequences stand for … in CUCUCU…GGAGGGAAAAGUUAUCAGGCAUGCACCUGGUAGCUAGUCUUUAAACCAAUAGAUUGCAUCGGUUUAAAAGGCAAGACCGUCAAAUUGCGGGAAAGGGGUCAACAGCCGUUCAGUACCAAGUCUCAGGGGAAACUUUGAGAUGGCCUUGCAAAGGGUAUGGUAAUAAGCUGACGGACAUGGUCCUAACCACGCAGCCAAGUCCUAAGUCAACAGAUCUUCUGUUGAUAUGGAUGCAGUUCACAGACUAAAUGUCGGUCGGGGAAGAUGUAUUCUUCUCAUAAGAUAUAGUCGGACCUCUCCUUAAUGGGAGCUAGCGGAUGAAGUGAUGCAACACUGGAGCCGCUGGGAACUAAUUUGUAUGCGAAAGUAUAUUGAUUAGUUUUGGAGUACUCGUGGUCG
In short: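 DiMSum derived fitness as the error-weighted combination of fold changes across replicates, kanamycin versus no kanamycin, normalised to wild type. E. coli BL21(DE3) held the library, which randomised all eight P1ex-region intron nucleotides within the knt kanamycin-resistance gene on pET-22b(+). Six replicate transformations grew overnight at 37°C or 30°C on LB agar with or without 25 μg/mL kanamycin, also containing 100 μg/mL carbenicillin, 50 μM IPTG and 0.2% rhamnose, and pooled colonies were amplicon-sequenced on an Illumina HiSeq 2500.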

| Sequence | self-splicing fitness (ln) (30 °C) | self-splicing fitness (ln) (37 °C) |
| --- | --- | --- |
| AGUGAGCAAUAUUACGACCC | -1.21 ± 0.54 | 0.279 ± 0.87 |
| GGGCAGCAAUAUUACGUCCU | -5.74 ± 1 | -3.02 ± 0.32 |
| ACAAAGCAAUAUUACGAGCC | -4.62 ± 0.72 |  |
| AGAGAGCAAUAUUACGUACG | -3.81 ± 1 | -2.18 ± 0.65 |
| CCAGAGCAAUAUUACGGGCU |  | -3.65 ± 0.59 |
| UCUUAGCAAUAUUACGCGGA | -2.79 ± 0.62 |  |
| UAAUAGCAAUAUUACGAGAA | -2.9 ± 0.75 |  |
| GGUGAGCAAUAUUACGAAUC | -2.87 ± 0.56 |  |
| CGGGAGCAAUAUUACGGAUA |  | -3.08 ± 1.1 |
| GCCGAGCAAUAUUACGAAUA | -2.87 ± 1.1 |  |
| CGCGAGCAAUAUUACGAUAU | -4.36 ± 0.6 | -1.51 ± 0.55 |
| CCGAAGCAAUAUUACGAACC |  | -2.41 ± 0.63 |
| GCAGAGCAAUAUUACGUCAA |  | -2.66 ± 0.54 |
| GUUUAGCAAUAUUACGAUGG | -1.77 ± 0.5 | -2.32 ± 0.77 |
| GAGGAGCAAUAUUACGACCC | -2.79 ± 1.2 | -1.58 ± 0.87 |
| CGGUAGCAAUAUUACGAGCC | -2.86 ± 0.66 | -0.693 ± 1.4 |
| GCUGAGCAAUAUUACGCCUA | -1.55 ± 0.32 | -0.595 ± 0.2 |
| AAUGAGCAAUAUUACGCAGU | -2.51 ± 0.2 | -3.29 ± 0.31 |
| CCUUAGCAAUAUUACGUCAA |  | -3.79 ± 0.59 |
| UGCCAGCAAUAUUACGUUCC | -1.31 ± 0.31 | -2.25 ± 0.3 |

| Sequence | self-splicing fitness (ln) (30 °C) | self-splicing fitness (ln) (37 °C) |
| --- | --- | --- |
| CGAGAGCAAUAUUACGACCC |  | -0.778 ± 1.4 |
| GCGGAGCAAUAUUACGGGAC | -2.82 ± 0.51 | -0.73 ± 1 |
| CUGUAGCAAUAUUACGCCUA | -2.77 ± 0.62 | -2.23 ± 0.55 |
| AGGAAGCAAUAUUACGAUAC | -3.27 ± 0.26 | -2.02 ± 0.2 |
| CGUAAGCAAUAUUACGUCUA | -2.78 ± 0.28 | -2.03 ± 0.18 |
| CUGGAGCAAUAUUACGCGCA | -3.83 ± 1 | -2.29 ± 0.63 |
| UAUGAGCAAUAUUACGCCCC | -2.79 ± 1.2 |  |
| GCAAAGCAAUAUUACGAGCC |  | -2.89 ± 0.75 |
| UCCGAGCAAUAUUACGGCAU | -2.13 ± 0.13 | -1.62 ± 0.097 |
| UCUAAGCAAUAUUACGCUCA | -3.48 ± 1.1 | -3.71 ± 0.6 |
| UUAAAGCAAUAUUACGUUUC | -3.92 ± 0.39 | -1.18 ± 0.31 |
| AAGGAGCAAUAUUACGCAAC | -3.63 ± 0.54 | -1.9 ± 0.6 |
| CAAUAGCAAUAUUACGCGGA | -3.59 ± 0.35 | -2.05 ± 0.16 |
| CUGGAGCAAUAUUACGAAAG |  | -1.27 ± 0.51 |
| AAUAAGCAAUAUUACGUGAA | -2.46 ± 0.16 | -0.674 ± 0.13 |
| GAUAAGCAAUAUUACGAAAU | -1.13 ± 0.13 | -1.11 ± 0.15 |
| AGAAAGCAAUAUUACGUACC | -0.284 ± 0.087 | 0.446 ± 0.12 |
| UUCUAGCAAUAUUACGUUGG |  | -2.94 ± 0.61 |
| GACCAGCAAUAUUACGAGCG | -2.08 ± 0.067 | -0.434 ± 0.077 |
| AAGGAGCAAUAUUACGCAGA | -3.36 ± 0.61 |  |

Complete entries from above.
GACCAGCAAUAUUACGAGCG in the list: self-splicing fitness (ln) (30 °C): -2.08 ± 0.067; self-splicing fitness (ln) (37 °C): -0.434 ± 0.077
CUGUAGCAAUAUUACGCCUA in the list: self-splicing fitness (ln) (30 °C): -2.77 ± 0.62; self-splicing fitness (ln) (37 °C): -2.23 ± 0.55

Source: the supplement of paper PMC7877785
